Results on 37 compounds are retold here after PubChem BioAssay AID493014 (National Center for Advancing Translational Sciences (NCATS), 2011).

Each structure is given as a SMILES string. The list shows a part of the results. The main result of the screen is listed elsewhere. These columns were measured beside it and carry no call. Most of these compounds were active or inconclusive in the main read-out, so they are no random draw. Words in brackets tell the shape of the fitted curve; partial curves, single points and poor fits give uncertain potencies.

The experiment in a line: qHTS Assay to Find Inhibitors of Chronic Active B-Cell Receptor Signaling. Particulars: ABC-DLBCL IkBa-CBG/CBR reporter, luminescence ratio (green luciferase fused to IkBa over red control in TMD8 lymphoma cells), 4 h. A digest of the protocol: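 Concentration-response series (up to 46 uM) were applied to TMD8 dual-reporter cells for 4 h at 37C with doxycycline. Green/red ratio, after filter-overlap correction, defined %Activity; red signal alone was normalised to basal cells and zero luminescence.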

The mark [1] stands for this setting: measured here: CBR red luminescence, cell number.
Where [2] appears, read: measured here: IkBa-CBG green luminescence.

On to `COc1ccc(Cl)cc1Nc1nc(-c2sc(NC(=O)C(C)(C)C)nc2C)cs1`, for which the AC50 under setting [1] was 10 µM [falling, partial curve].
Still for that read-out and setting: the same measure for `CC(=O)c1ccc(OCc2ccccc2)c(C)c1O`: 16.4 µM [rising, partial curve].
On the same count and under the same terms, for `Cc1cccc(OCC(=O)NNc2c3ccccc3nc3ccccc23)c1` the value was 35.5 µM [falling, single point].
On to `Oc1c(CN2CCN(c3ccccc3)CC2)cc(Br)c2cccnc12`, for which the AC50 is 3.16 µM [rising, single point] under setting [1] and 3.16 µM [falling, partial curve, poor fit] under setting [2].
`COC(=O)c1ccc(NC(=O)CSc2nn3c(=O)c(C)nnc3s2)cc1`: the AC50 runs as follows: under setting [1], 12.6 µM [falling, partial curve, poor fit]; under setting [2], 2.82 µM [rising, partial curve, poor fit].
Turning to `CCC(c1nnnn1CCc1ccccc1)N1CCN(C(=O)c2ccco2)CC1` (centres undefined), the AC50 under setting [1] is 35.5 µM [falling, single point] and the AC50 under setting [2] is 35.5 µM [rising, partial curve, poor fit].
For `Cc1cccc2sc(N(Cc3cccnc3)C(=O)Cc3ccccc3)nc12`, the AC50 is 11.2 µM [falling, partial curve] under setting [1] and 15.8 µM [rising, partial curve, poor fit] under setting [2].
As to `CC(C)C(C)NC(=O)COc1ccc(-c2ccccc2)cc1` (centres undefined), the AC50 under setting [1] was 32.6 µM [rising, single point].
`COc1cc(/C=C/C(=O)N2CCCC2)cc(OC)c1OC`: the AC50 under setting [2] was 23.1 µM [falling, partial curve, poor fit].
On to `O=C(Nc1cc(-c2nc3ccccc3s2)ccc1Cl)c1ccc2c(c1)OCO2`, for which the AC50 under setting [1] is 12.6 µM [rising, partial curve, poor fit].
The same measure, in the same setting: for `CCCCNS(=O)(=O)c1ccc2nc(SCC(=O)Nc3sccc3C#N)[nH]c2c1` the value was 7.08 µM [falling, partial curve, poor fit].
On the same count and under the same terms, the same measure for `CCN(CC)S(=O)(=O)c1cccc(C(=O)Nc2ccc(Cl)cn2)c1`: 6.51 µM [falling, single point].
As for `Cc1ccc(C(=O)O)cc1NC(=S)NC(=O)c1ccc(COc2ccccc2)cc1`, under setting [1], the AC50 is 22.4 µM [falling, single point].
As to `Nc1nc2ccc([N+](=O)[O-])c(N)c2s1`, the AC50 under setting [1] was 10 µM [rising, partial curve] and the AC50 under setting [2] was 11.2 µM [falling, partial curve, poor fit].
With `N#Cc1ccccc1/C=N/Nc1nc(-c2ccccc2)c2cc(Cl)ccc2n1`, under setting [1], the AC50 is 0.562 µM [falling, full curve, poor fit].
The same measure, in the same setting: for `CC(=O)Nc1cccc(C(=O)OCC(=O)NC(C)c2ccc(F)cc2)c1` (centres undefined) the value was 10 µM [rising, partial curve, poor fit].
The same measure, in the same setting: for `Cc1ccc(Cn2cnc3ccccc32)cc1` the value was 18.4 µM [rising, single point]; for `O=C(c1cc(Cl)cc(Cl)c1)N1CCC(=O)N(C(COCc2ccccc2)Cc2ccccc2)CC1` (centres undefined), 29.1 µM [falling, single point]; for `O=C(O)CC12CC3CC(C1)CC(n1ncc(NCc4ccco4)c(Cl)c1=O)(C3)C2`, 15.8 µM [rising, single point].
As to `O=C(Nc1nc2cc3c(cc2s1)OCO3)c1ccc(N2C(=O)CCC2=O)cc1`, the AC50 reads like this: under setting [1], 0.891 µM [falling, full curve]; under setting [2], 0.501 µM [rising, full curve, poor fit].
Regarding `CCCc1ccc(OCc2ccc(C(=O)N3CCN(c4ccccn4)CC3)o2)c(OC)c1`, the AC50 under setting [1] is 18.4 µM [falling, single point].
On the same count and under the same terms, the same measure for `CC(C)(C)c1ccc(OCC(=O)N/N=C/c2ccsc2)cc1`: 13 µM [falling, partial curve, poor fit].
Still for that read-out and setting: the same measure for `O=C(NCc1ccccc1Cl)c1cnc2ccccc2n1`: 35.5 µM [falling, single point].
With `CC(C)(C)c1cc[n+](C2=C([O-])c3ccccc3C(=O)/C2=N\S(=O)(=O)c2ccccc2)cc1`, the AC50 under setting [1] is 17.8 µM [falling, single point].
For the compound `COc1ccc(-c2csc(NC(=O)CCCc3nc4ccccc4c(=O)[nH]3)n2)cc1OC`, the AC50 under setting [1] is 20.6 µM [falling, single point].
On the same count and under the same terms, the same measure for `CC(=O)Nc1ccc(OCC(O)Cn2nc(C)nc2C)cc1` (centres undefined): 6.51 µM [falling, single point].
As for `CCOC(=O)CC(=O)CSc1nc2ccccc2c(=O)n1CCc1ccccc1`, the AC50 is 14.1 µM [falling, single point] under setting [1] and 17.8 µM [rising, partial curve, poor fit] under setting [2].
`Cc1ccc(OCc2nnc(SCc3ccc(C#N)cc3)n2-c2ccc(C)cc2)cc1`: the AC50 under setting [2] was 6.51 µM [rising, partial curve, poor fit].
`CC(C)n1nc(C(=O)NC2CCCCCC2)c2ccccc2c1=O`: the AC50 under setting [1] was 18.4 µM [falling, single point].
Still for that read-out and setting: the same measure for `Cc1cc(C)n(-c2ncnc3sc(C)c(C)c23)n1`: 32.6 µM [rising, single point].
In the case of `C=C(C)Cn1c(CCNC(=O)C(C)(C)C)nc2ccccc21`, under setting [1], the AC50 was 0.326 µM [rising, partial curve, poor fit].
Same read-out and setting: for `CCCn1c(NC(=O)c2ccc(Cl)c(S(=O)(=O)N3CCCC3)c2)nc2ccccc21` the value was 14.1 µM [falling, single point]; for `Cc1cc2cc(CNC(=O)Nc3cccc(Cl)c3)ccc2n1C`, 29.1 µM [rising, single point].
On to `CC(=O)Nc1ccc(S(=O)(=O)N2CCN(c3ccccc3)CC2)cc1`, for which the AC50 under setting [1] is 2.24 µM [rising, partial curve, poor fit].
On the same count and under the same terms, the same measure for `COc1ccc(N(C(=O)Cn2nnc3ccccc32)C(C(=O)NCc2ccco2)c2ccc(C)o2)cc1` (centres undefined): 22.4 µM [falling, single point]; for `CSc1ccc(S(=O)(=O)Nc2ccc(OCC(=O)N3CCOCC3)cc2)cc1`: 22.4 µM [falling, partial curve, poor fit]; for `C/C(=N\NC(=O)c1cc2c(s1)CCC(C)C2)c1ccncc1` (centres undefined): 16.4 µM [rising, partial curve, poor fit].
